{"source": "PubChem BioAssay AID686938 (Drosophila RNAi Screening Center, 2013)", "purpose": "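Fly genes required for calcium entry once internal stores are emptied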 (primary screen)", "cells": "Drosophila S2R+ cells", "reagents": "long dsRNA against Drosophila genes, about 0.25 µg dsRNA per well, roughly 10,000 cells", "time to read-out": "5 days of knock-down before the calcium assay", "conditions": "thapsigargin (SERCA pump blocker) to empty calcium stores; entry signal taken 4 min after adding it", "detection": "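Per-well fluo-4 fluorescence in two replicates, unnormalised, measured in resting cells and 4 min after store depletion by the SERCA blocker thapsigargin; ratio of the two present in few wells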", "direction": "calcium entry signal: higher = stronger calcium signal after store depletion; entry to resting ratio: higher = more calcium entry relative to resting level; resting calcium signal: higher = higher resting calcium signal", "units": "calcium entry signal in fluorescence units; resting calcium signal in fluorescence units", "hit rule": "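Called when the plate z-score of the entry-to-rest ratio, mean of duplicates, falls below −3; wells with low overall dye signal (Fmax z below −2) or more than five off-targets excluded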", "meaning of the calls": "active = strongly reduced calcium entry; inactive = no strong reduction", "note": "In all, the deposit lists about 23,000 reagents; shown is a random part of those that have a named target and a result. Of all reagents, 75 (0.33%) were called active. 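Raw plate signals without normalisation; calls rest on plate z-scores that were not deposited; ratio present for only 364 wells.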 A plus sign joins genes that one reagent is predicted to hit. Not given: the dose of the treatment."}
{"predicted target": "egh (GeneID 31239)", "dsRNA": "DRSC18771", "calcium entry signal, replicate 1": 4.43e7, "calcium entry signal, replicate 2": 2.97e7, "entry to resting ratio": 2.2, "resting calcium signal, replicate 1": 2.00e7, "resting calcium signal, replicate 2": 1.36e7, "Outcome": "inactive"}
{"predicted target": "sloth2 + sloth1", "dsRNA": "DRSC17922", "calcium entry signal, replicate 1": 3.11e7, "calcium entry signal, replicate 2": 4.82e7, "resting calcium signal, replicate 1": 1.68e7, "resting calcium signal, replicate 2": 2.11e7, "Outcome": "inactive"}
{"predicted target": "sloth2 + sloth1", "dsRNA": "DRSC17923", "calcium entry signal, replicate 1": 3.26e7, "calcium entry signal, replicate 2": 4.83e7, "resting calcium signal, replicate 1": 1.52e7, "resting calcium signal, replicate 2": 2.20e7, "Outcome": "inactive"}
{"predicted target": "Nelf-E (GeneID 38982)", "dsRNA": "DRSC10567", "calcium entry signal, replicate 1": 3.06e7, "calcium entry signal, replicate 2": 4.03e7, "resting calcium signal, replicate 1": 1.51e7, "resting calcium signal, replicate 2": 1.88e7, "Outcome": "inactive"}
{"predicted target": "dib (GeneID 45282)", "dsRNA": "DRSC08711", "calcium entry signal, replicate 1": 4.78e7, "calcium entry signal, replicate 2": 2.97e7, "resting calcium signal, replicate 1": 3.06e7, "resting calcium signal, replicate 2": 1.33e7, "Outcome": "inactive"}
{"predicted target": "Dredd (GeneID 31011)", "dsRNA": "DRSC18461", "calcium entry signal, replicate 1": 3.79e7, "calcium entry signal, replicate 2": 4.27e7, "resting calcium signal, replicate 1": 1.65e7, "resting calcium signal, replicate 2": 2.00e7, "Outcome": "inactive"}
{"predicted target": "g (GeneID 44819)", "dsRNA": "DRSC20335", "calcium entry signal, replicate 1": 3.70e7, "calcium entry signal, replicate 2": 3.36e7, "resting calcium signal, replicate 1": 1.90e7, "resting calcium signal, replicate 2": 1.64e7, "Outcome": "inactive"}
{"predicted target": "niki (GeneID 42959)", "dsRNA": "DRSC14285", "calcium entry signal, replicate 1": 3.23e7, "calcium entry signal, replicate 2": 4.21e7, "resting calcium signal, replicate 1": 1.52e7, "resting calcium signal, replicate 2": 1.78e7, "Outcome": "inactive"}
{"predicted target": "CG13894 (GeneID 38086)", "dsRNA": "DRSC08364", "calcium entry signal, replicate 1": 4.39e7, "calcium entry signal, replicate 2": 3.97e7, "resting calcium signal, replicate 1": 2.34e7, "resting calcium signal, replicate 2": 2.07e7, "Outcome": "inactive"}
{"predicted target": "CG13894 (GeneID 38086)", "dsRNA": "DRSC23205", "calcium entry signal, replicate 1": 3.66e7, "calcium entry signal, replicate 2": 3.19e7, "resting calcium signal, replicate 1": 1.74e7, "resting calcium signal, replicate 2": 1.55e7, "Outcome": "inactive"}
{"predicted target": "CG4151 (GeneID 31465)", "dsRNA": "DRSC18351", "calcium entry signal, replicate 1": 2.50e7, "calcium entry signal, replicate 2": 3.73e7, "resting calcium signal, replicate 1": 1.21e7, "resting calcium signal, replicate 2": 1.72e7, "Outcome": "inactive"}
{"predicted target": "CG13465 (GeneID 50282)", "dsRNA": "DRSC10011", "calcium entry signal, replicate 1": 5.23e7, "calcium entry signal, replicate 2": 7.23e7, "resting calcium signal, replicate 1": 2.40e7, "resting calcium signal, replicate 2": 2.85e7, "Outcome": "inactive"}
{"predicted target": "bai (GeneID 42996)", "dsRNA": "DRSC14388", "calcium entry signal, replicate 1": 4.73e7, "calcium entry signal, replicate 2": 5.02e7, "resting calcium signal, replicate 1": 2.37e7, "resting calcium signal, replicate 2": 2.13e7, "Outcome": "inactive"}
{"predicted target": "strat (GeneID 34142)", "dsRNA": "DRSC03069", "calcium entry signal, replicate 1": 4.55e7, "calcium entry signal, replicate 2": 8.19e7, "resting calcium signal, replicate 1": 2.09e7, "resting calcium signal, replicate 2": 3.26e7, "Outcome": "inactive"}
